{"source": "patent US20210346378A1", "about": "“METHOD TO PREVENT AND TREAT ALOPECIA BY CALCIUM CHANNEL BLOCKERS, ANGIOTENSIN CONVERTING ENZYME INHIBITORS, AND ANGIOTENSIN RECEPTOR BLOCKERS” (priority 2019, published 2021)", "key": {"men androgenic baldness": {"tested_on": "men androgenic baldness", "details": "after 48 weeks, cited from earlier work"}, "female pattern hair loss": {"tested_on": "female pattern hair loss", "details": "cited from earlier work"}, "androgenic alopecia": {"tested_on": "androgenic alopecia", "details": "Minoxidil 2%, one-year treatment; cited from earlier work"}, "[1]": {"tested_on": "VEGF mRNA in papilla dermal cell culture", "details": "increasing concentration of Minoxidil; cited from earlier work"}, "alopecia [2]": {"tested_on": "alopecia", "assay": "composition directly applied to the scalp on one side of the head, other side left untreated", "assay_type": "in vivo, human", "source_text": "(§1) patient one is diagnosed with alopecia. A composition comprising the calcium channel blocker nifedipine is directly applied to the scalp on one side of the head while the other side is left untreated. […] patient one is diagnosed with alopecia. A composition comprising the ACE inhibitor enalapril is directly applied to the scalp on one side of the head while the other side is left untreated. […] patient one is diagnosed with alopecia. A composition comprising the angiotensin receptor blocker losartan is directly applied to the scalp on one side of the head while the other side is left untreated. […] patient two is diagnosed with alopecia. A composition comprising the calcium channel blocker nifedipine is directly applied to the scalp on one side of the head while the other side is left untreated. […] patient two is diagnosed with alopecia. A composition comprising the ACE inhibitor enalapril is directly applied to the scalp on one side of the head while the other side is left untreated. […] patient two is diagnosed with alopecia. A composition comprising the angiotensin receptor blocker losartan is directly applied to the scalp on one side of the head while the other side is left untreated."}, "alopecia [3]": {"tested_on": "alopecia", "assay": "composition directly injected into the scalp on one side of the head, other side left untreated", "assay_type": "in vivo, human", "source_text": "as §1, with “injected into” for “applied to”, “the” for “the other”"}}, "note": "Like-named read-outs stand apart in the source and are kept apart here. At least one compound was matched to its structure with a doubt left."}
{"smiles": "Nc1cc(N2CCCCC2)nc(N)[n+]1[O-]", "note": "[Minoxidil]", "values": [{"measurement": "terminal hair generated", "setting": "men androgenic baldness; 2% solution", "value": "12.7 terminal hair per square centi"}, {"measurement": "terminal hair generated", "setting": "men androgenic baldness; 5% solution", "value": "18.6 terminal hair per square centi"}, {"measurement": "time before a visible effect can be observed", "setting": "female pattern hair loss; 2% and 5% solutions, 5% foam", "value": 4, "unit": "months"}, {"measurement": "users in whom acceptable cosmetic results are achieved", "setting": "female pattern hair loss; chronic Minoxidil users", "value": 30, "unit": "%"}, {"measurement": "participants reporting a moderate to marked increase in hair growth", "setting": "female pattern hair loss; women, pool data of 6 trials (157/593)", "value": 25.8, "unit": "%"}, {"measurement": "hair count versus Finasteride", "setting": "androgenic alopecia", "value": "significantly inferior in hair count"}, {"measurement": "VEGF mRNA concentration", "setting": "[1]", "value": "increased concentration of VEGF mRNA"}]}
{"smiles": "COC(=O)C1=C(C)NC(C)=C(C(=O)OC)C1c1ccccc1[N+](=O)[O-]", "note": "[nifedipine]", "values": [{"measurement": "symptoms of alopecia, treated side versus untreated side", "setting": "alopecia [2]; patient one", "value": "reduced symptoms of alopecia"}, {"measurement": "symptoms of alopecia, treated side versus untreated side", "setting": "alopecia [2]; patient two", "value": "reduced symptoms of alopecia"}, {"measurement": "symptoms of alopecia, treated side versus untreated side", "setting": "alopecia [3]; patient one", "value": "reduced symptoms of alopecia"}, {"measurement": "symptoms of alopecia, treated side versus untreated side", "setting": "alopecia [3]; patient two", "value": "reduced symptoms of alopecia"}]}
